The values below come from article PMC7819943, “Rice protein-binding microarrays: a tool to detect cis-acting elements near promoter regions in rice”.

This is one part of the list.

For this assay, the target named is T1, OsSMF1 (Oryza sativa, UniProt Q6ZLB0 1-436).
T1 sequence: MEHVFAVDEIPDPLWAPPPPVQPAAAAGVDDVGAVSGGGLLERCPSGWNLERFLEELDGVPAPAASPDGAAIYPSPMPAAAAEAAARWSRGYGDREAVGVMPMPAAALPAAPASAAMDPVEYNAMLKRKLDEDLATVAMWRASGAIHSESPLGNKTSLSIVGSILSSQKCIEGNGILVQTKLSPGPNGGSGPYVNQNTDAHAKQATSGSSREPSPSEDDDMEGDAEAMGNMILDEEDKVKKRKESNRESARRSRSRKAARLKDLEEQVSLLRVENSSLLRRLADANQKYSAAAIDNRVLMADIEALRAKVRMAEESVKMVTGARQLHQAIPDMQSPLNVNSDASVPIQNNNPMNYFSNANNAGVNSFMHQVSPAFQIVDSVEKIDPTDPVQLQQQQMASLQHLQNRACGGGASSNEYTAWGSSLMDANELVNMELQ
Kind of assay: protein-binding microarray (RPBM); PBS, 2% BSA, 51.3 ng/ul salmon testes DNA, 50 uM zinc acetate, 200 nM TF, 25 C, 1 h; high values mean tight binding. Conditions: protein: recombinant; tags: N-terminal polyhistidine and DsRed monomer fusion (pET32a); chain copies: 2; label: CyDye5-dUTP incorporated in the synthesized complementary strand; 3' TTTTT single-stranded linker to array surface; dsDNA, one strand shown. A digest of the protocol: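 The binding signal is fluorescence intensity per feature, in arbitrary units, read on an Axon 4000B scanner. Polyhistidine- and DsRed-tagged transcription factors (N-terminal fusions) from E. coli BL21-CodonPlus were purified on Ni–NTA and applied at 200 nM for 1 h at 25 °C to a double-stranded, BSA-blocked custom Agilent array in buffer with 50 µM zinc acetate.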
“CGGCGACGGCGGCGAGGATTGCCGGCTTCAATGGGGATTGCGGAGTCACCTAGTGCAG”: the binding signal is 4230 fluorescence intensity (a.u.). The same measure for “TTTTATTCTCTTATTAATTAGAGTAATAATTGTACTCTATCGGAGTCACCTAGTGCAG”: 34900 fluorescence intensity (a.u.); for “GTTGGCTTAACGAGTCAGCTAGCTCAATTCAACTCATCGACGGAGTCACCTAGTGCAG”: 3520 fluorescence intensity (a.u.). “GCCGCCACGCCGGCGGACGGGACGTCATCATCGTCAACGCCGGAGTCACCTAGTGCAG”: the binding signal was 6000 fluorescence intensity (a.u.). The same measure for “CAACTCCATCTTATTACTGATTCATCACTGCGGAATGAACCGGAGTCACCTAGTGCAG”: 3760 fluorescence intensity (a.u.); for “TTGCAAGCCGCCGCCATACCACTGCCAGGTGGTCCCCACCCGGAGTCACCTAGTGCAG”: 4590 fluorescence intensity (a.u.); for “CTATAGAAGATATTTTGGGCACTTAGTCATCGTGTTTAGCCGGAGTCACCTAGTGCAG”: 4540 fluorescence intensity (a.u.). The same measure for “CTGCCTCGCCCCGCCGGCCTCCTCCCGACCTACCGCCACCCGGAGTCACCTAGTGCAG”: 4110 fluorescence intensity (a.u.); for “TAACTGGGCCCACGTCACTAGGCCGGATATCAATTGGGCTCGGAGTCACCTAGTGCAG”: 13700 fluorescence intensity (a.u.). With “CACATGTCATAGACACATGTGGACCCACGTGTCATTGAGACGGAGTCACCTAGTGCAG”, the binding signal was 7700 fluorescence intensity (a.u.). To “TATATGGAAAATGTTGCATGGCTATTATCGAGTTGCATGCCGGAGTCACCTAGTGCAG” belongs 19500 fluorescence intensity (a.u.); to “TCTACTGTGCATTTGCACGAGGATAGTCAGACTCAGAGCACGGAGTCACCTAGTGCAG”, 38500 fluorescence intensity (a.u.). To “GTGACTCGGTGGGAGTATGGTGGTGCCGACGCATCGTGGTCGGAGTCACCTAGTGCAG” belongs 3650 fluorescence intensity (a.u.); to “GCCCGTGCCAGGGCTGCTACCTCGGCACACTGGCCGGCACCGGAGTCACCTAGTGCAG”, 3350 fluorescence intensity (a.u.); to “CACACGCAAAGCTGCAAAAGTTGAATTCCATTATTCCACACGGAGTCACCTAGTGCAG”, 65500 fluorescence intensity (a.u.).

In the case of “CCGGGGTGTCAGAAATCCAGGCCCACCCGTCAGCGACGCGCGGAGTCACCTAGTGCAG”, the binding signal is 4130 fluorescence intensity (a.u.).

Regarding “ATTCATTGTAATAGGATGCGTCACCTTCATCGAAAATTTCCGGAGTCACCTAGTGCAG”, the binding signal is 4940 fluorescence intensity (a.u.). For “GAGGATGACGATGACGACAACCTACTGTAGCACGGGTGAACGGAGTCACCTAGTGCAG”, the binding signal is 6210 fluorescence intensity (a.u.). To “GAATCATTTCCATGTAGAACTTGAAAATATCGGACCCCGTCGGAGTCACCTAGTGCAG” belongs 13800 fluorescence intensity (a.u.). To “ACGGGCGTACTACGTGTTACGGCTGAACCAATCTATCCCCCGGAGTCACCTAGTGCAG” belongs 5320 fluorescence intensity (a.u.). “ATTTTGACGCAATCGCAAGCAGCGGTGCACCATTTGCACACGGAGTCACCTAGTGCAG”: the binding signal is 3500 fluorescence intensity (a.u.). To “ATTACGCGTGTCTGTCAGATGCGTCTGCTATGTCAGGAATCGGAGTCACCTAGTGCAG” belongs 3270 fluorescence intensity (a.u.); to “GGGTGGGTGGAGACTGGAGAGTCCTCTCCGCGAGAGGCTGCGGAGTCACCTAGTGCAG”, 3200 fluorescence intensity (a.u.).
